Data: the supplement of paper PMC2577665
± gives the standard deviation of the averaged measurements. Single values of this set are uncertain.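 Each test well overexpressed one poorly characterized human cDNA in ERalpha-negative HeLa cells together with transfected ERalpha and a reporter carrying two estrogen response elements. A gene counted as a repressor hit if it cut the signal to the level of the BRCA1 positive control (about 0.6 of empty vector) or lower.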

System: ERE-luciferase reporter with exogenous ERalpha in HeLa cells
Assay: relative ERE luciferase activity (Firefly/Renilla) upon cDNA overexpression, relative to empty vector (fold of empty vector); higher = stronger ERalpha transactivation (less repression)
Conditions: 17beta-estradiol: 10 nM; 12 h

Row | Sequence | relative ERE luciferase activity
1 | MTKTSTCIYHFLVLSWYTFLNYYISQEGKDEVKPKILANGARWKYMTLLNLLLQTIFYGVTCLDDVLKRTKGGKDIKFLTAFRDLLFTTLAFPVSTFVFLAFWILFLYNRDLIYPKVLDTVIPVWLNHAMHTFIFPITLAEVVLRPHSYPSKKTGLTLLAAASIAYISRILWLYFETGTWVYPVFAKLSLLGLAAFFSLSYVFIASIYLLGEKLNHWKWGDMRQPRKKRK [C6orf105] | 1.12
2 | MTSLPCPLPGRDASKAVFPDLAPVPSVAAAYPLGLSPTTAASPNLSYSRPYGHLLSYPYTEPANPGDSYLSCQQPAALSQPLCGPAEHPQELEADSEKPRLSPEPSERRPQAPAKKLRKPRTIYSSLQLQHLNQRFQHTQYLALPERAQLAAQLGLTQTQVKIWFQNKRSKYKKLLKQNSGGQEGDFPGRTFSVSPCSPPLPSLWDLPKAGTLPTSGYGNSFGAWYQHHSSDVLASPQMM [DLX4] | 2.5
3 | MTTAARPTFEPARGGRGKGEGDLSQLSKQYSSRDLPSHTKIKYRQTTQDAPEEVRNRDFRRELEERERAAAREKNRDRPTREHTTSSSVSKKPRLDQIPAANLDADDPLTDEEDEDFEEESDDDDTAALLAELEKIKKERAEEQARKEQEQKAEEERIRMENILSGNPLLNLTGPSQPQANFKVKRRWDDDVVFKNCAKGVDDQKKDKRFVNDTLRSEFHKKFMEKYIK [CWC15] | 1.21
4 | MTTEIGWWKLTFLRKKKSTPKVLYEIPDTYAQTEGDAEPPRPDAGGPNSDFNTRLEKIVDKSTKGKHVKVSNSGRFKEKKKVRATLAENPNLFDDHEEGRSSK [ATAD4] | 1.02
5 | MVAADQGRGWNPLDGPTWEVLAMPLPLGPATQVPALFSAALVPPVSSLRPNQMLDWQRLKTPHGAPVACSLGLSGEWVPTPCALSILALLGLQLDPLFGLWGCTRTLFWSEWARESRRP [TMEM148] | 1.14
6 | MVKCCSAIGCASRCLPNSKLKGLTFHVFPTDENIKRKWVLAMKRLDVNAAGIWEPKKGDVLCSRHFKKTDFDRSAPNIKLKPGVIPSIFDSPYHLQGKREKLHCRKNFTLKTVPATNYNHHLVGASSCIEEFQSQFIFEHSYSVMDSPKKLKHKLDHVIGELEDTKESLRNVLDREKRFQKSLRKTIRELKDECLISQETANRLDTFCWDCCQESIEQDYIS [THAP6] | 1.18 ± 0.24
7 | MVLGKVKSLTISFDCLNDSNVPVYSSGDTVSGRVNLEVTGEIRVKSLKIHARGHAKVRWTESRNAGSNTAYTQNYTEEVEYFNHKDILIGHERDDDNSEEGFHTIHSGRHEYAFSFELPQTPLATSFEGRHGSVRYWVKAELHRPWLLPVKLKKEFTVFEHIDINTPSLLSPQAGTKEKTLCCWFCTSGPISLSAKIERKGYTPGESIQIFAEIENCSSRMVVPKAAIYQTQAFYAKGKMKEVKQLVANLRGESLSSGKTETWNGKLLKIPPVSPSILDCSIIRVEYSLMVYVDIPGAMDLFLNLPLVIGTIPLHPFGSRTSSVSSQCSMNMNWLSLSLPERPEAPPSYAEVVTEEQRRNNLAPVSACDDFERALQGPLFAYIQEFRFLPPPLYSEIDPNPDQSADDRPSCPSR [ARRDC3] | 0.873
8 | MVPREAPESAQCLCPSLTIPNAKDVLRKRHKRRSRQHQRFMARKALLQEQGLLSMPPEPGSSPLPTPFGAATATEAASSGKQCLRAGSGSAPCSRRPAPGKASGPLPSKCVAIDCEMVGTGPRGRVSELARCSIVSYHGNVLYDKYIRPEMPIADYRTRWSGITRQHMRKAVPFQVAQKEILKLLKGKVVVGHALHNDFQALKYVHPRSQTRDTTYVPNFLSEPGLHTRARVSLKDLALQLLHKKIQVGQHGHSSVEDATTAMELYRLVEVQWEQQEARSLWTCPEDREPDSSTDMEQYMEDQYWPDDLAHGSRGGAREAQDRRN [ISG20L1] | 1.22
9 | MVSSPCTQASSRTCSRILGLSLGTAALFAAGANVALLLPNWDVTYLLRGLLGRHAMLGTGLWGGGLMVLTAAILISLMGWRYGCFSKSGLCRSVLTALLSGGLALLGALICFVTSGVALKDGPFCMFDVSSFNQTQAWKYGYPFKDLHSRNYLYDRSLWNSVCLEPSAAVVWHVSLFSALLCISLLQLLLVVVHVINSLLGLFCSLCEK [TM4SF19] | 1.02 ± 0.021
10 | MVVREASAAQASLSQVLPQLRYLHIFLEQVHTHFQEQSVGERGAAIQLAEGLARQLCTDCQLNKLFYREEFVLATLLDPCFKGKIEAILPWGPTDIDHWKQVLVYKVKEIRVSEYSLNSPSPLQSPRGLCVDPTRVAKSSGVEGRSQGEPLQSSSHSGAFLLAQREKGLLESMGLLASERSGGSLSTKSHWASIIVKKYLWENETVGAQDDPLAYWEKKREAWPPSICLTPHRSLL [C7orf29] | 1.08

A few values from the entries so far:
relative ERE luciferase activity with MVPREAPESAQCLCPSLTIPNAKDVLRKRHKRRSRQHQRFMARKALLQEQGLLSMPPEPGSSPLPTPFGAATATEAASSGKQCLRAGSGSAPCSRRPAPGKASGPLPSKCVAIDCEMVGTGPRGRVSELARCSIVSYHGNVLYDKYIRPEMPIADYRTRWSGITRQHMRKAVPFQVAQKEILKLLKGKVVVGHALHNDFQALKYVHPRSQTRDTTYVPNFLSEPGLHTRARVSLKDLALQLLHKKIQVGQHGHSSVEDATTAMELYRLVEVQWEQQEARSLWTCPEDREPDSSTDMEQYMEDQYWPDDLAHGSRGGAREAQDRRN [ISG20L1] reads 1.22
relative ERE luciferase activity with MVVREASAAQASLSQVLPQLRYLHIFLEQVHTHFQEQSVGERGAAIQLAEGLARQLCTDCQLNKLFYREEFVLATLLDPCFKGKIEAILPWGPTDIDHWKQVLVYKVKEIRVSEYSLNSPSPLQSPRGLCVDPTRVAKSSGVEGRSQGEPLQSSSHSGAFLLAQREKGLLESMGLLASERSGGSLSTKSHWASIIVKKYLWENETVGAQDDPLAYWEKKREAWPPSICLTPHRSLL [C7orf29] reads 1.08
